Among the data in publication PMC7546217 are binding values, retold here.

The chains behind the UniProt entries cited, without tags or fusion partners.
UniProt P03466: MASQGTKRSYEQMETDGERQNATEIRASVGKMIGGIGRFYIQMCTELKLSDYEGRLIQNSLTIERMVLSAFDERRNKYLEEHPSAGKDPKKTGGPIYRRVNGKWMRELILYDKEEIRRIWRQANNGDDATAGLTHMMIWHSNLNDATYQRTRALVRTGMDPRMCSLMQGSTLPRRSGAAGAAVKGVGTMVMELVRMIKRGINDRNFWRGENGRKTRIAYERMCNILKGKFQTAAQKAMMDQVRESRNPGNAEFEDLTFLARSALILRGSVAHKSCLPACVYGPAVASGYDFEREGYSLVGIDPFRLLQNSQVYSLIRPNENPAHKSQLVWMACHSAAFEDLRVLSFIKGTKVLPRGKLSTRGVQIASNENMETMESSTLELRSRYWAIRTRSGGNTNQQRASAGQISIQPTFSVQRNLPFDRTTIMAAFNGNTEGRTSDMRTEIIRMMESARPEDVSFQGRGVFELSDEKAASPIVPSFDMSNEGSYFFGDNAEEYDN
UniProt P21333: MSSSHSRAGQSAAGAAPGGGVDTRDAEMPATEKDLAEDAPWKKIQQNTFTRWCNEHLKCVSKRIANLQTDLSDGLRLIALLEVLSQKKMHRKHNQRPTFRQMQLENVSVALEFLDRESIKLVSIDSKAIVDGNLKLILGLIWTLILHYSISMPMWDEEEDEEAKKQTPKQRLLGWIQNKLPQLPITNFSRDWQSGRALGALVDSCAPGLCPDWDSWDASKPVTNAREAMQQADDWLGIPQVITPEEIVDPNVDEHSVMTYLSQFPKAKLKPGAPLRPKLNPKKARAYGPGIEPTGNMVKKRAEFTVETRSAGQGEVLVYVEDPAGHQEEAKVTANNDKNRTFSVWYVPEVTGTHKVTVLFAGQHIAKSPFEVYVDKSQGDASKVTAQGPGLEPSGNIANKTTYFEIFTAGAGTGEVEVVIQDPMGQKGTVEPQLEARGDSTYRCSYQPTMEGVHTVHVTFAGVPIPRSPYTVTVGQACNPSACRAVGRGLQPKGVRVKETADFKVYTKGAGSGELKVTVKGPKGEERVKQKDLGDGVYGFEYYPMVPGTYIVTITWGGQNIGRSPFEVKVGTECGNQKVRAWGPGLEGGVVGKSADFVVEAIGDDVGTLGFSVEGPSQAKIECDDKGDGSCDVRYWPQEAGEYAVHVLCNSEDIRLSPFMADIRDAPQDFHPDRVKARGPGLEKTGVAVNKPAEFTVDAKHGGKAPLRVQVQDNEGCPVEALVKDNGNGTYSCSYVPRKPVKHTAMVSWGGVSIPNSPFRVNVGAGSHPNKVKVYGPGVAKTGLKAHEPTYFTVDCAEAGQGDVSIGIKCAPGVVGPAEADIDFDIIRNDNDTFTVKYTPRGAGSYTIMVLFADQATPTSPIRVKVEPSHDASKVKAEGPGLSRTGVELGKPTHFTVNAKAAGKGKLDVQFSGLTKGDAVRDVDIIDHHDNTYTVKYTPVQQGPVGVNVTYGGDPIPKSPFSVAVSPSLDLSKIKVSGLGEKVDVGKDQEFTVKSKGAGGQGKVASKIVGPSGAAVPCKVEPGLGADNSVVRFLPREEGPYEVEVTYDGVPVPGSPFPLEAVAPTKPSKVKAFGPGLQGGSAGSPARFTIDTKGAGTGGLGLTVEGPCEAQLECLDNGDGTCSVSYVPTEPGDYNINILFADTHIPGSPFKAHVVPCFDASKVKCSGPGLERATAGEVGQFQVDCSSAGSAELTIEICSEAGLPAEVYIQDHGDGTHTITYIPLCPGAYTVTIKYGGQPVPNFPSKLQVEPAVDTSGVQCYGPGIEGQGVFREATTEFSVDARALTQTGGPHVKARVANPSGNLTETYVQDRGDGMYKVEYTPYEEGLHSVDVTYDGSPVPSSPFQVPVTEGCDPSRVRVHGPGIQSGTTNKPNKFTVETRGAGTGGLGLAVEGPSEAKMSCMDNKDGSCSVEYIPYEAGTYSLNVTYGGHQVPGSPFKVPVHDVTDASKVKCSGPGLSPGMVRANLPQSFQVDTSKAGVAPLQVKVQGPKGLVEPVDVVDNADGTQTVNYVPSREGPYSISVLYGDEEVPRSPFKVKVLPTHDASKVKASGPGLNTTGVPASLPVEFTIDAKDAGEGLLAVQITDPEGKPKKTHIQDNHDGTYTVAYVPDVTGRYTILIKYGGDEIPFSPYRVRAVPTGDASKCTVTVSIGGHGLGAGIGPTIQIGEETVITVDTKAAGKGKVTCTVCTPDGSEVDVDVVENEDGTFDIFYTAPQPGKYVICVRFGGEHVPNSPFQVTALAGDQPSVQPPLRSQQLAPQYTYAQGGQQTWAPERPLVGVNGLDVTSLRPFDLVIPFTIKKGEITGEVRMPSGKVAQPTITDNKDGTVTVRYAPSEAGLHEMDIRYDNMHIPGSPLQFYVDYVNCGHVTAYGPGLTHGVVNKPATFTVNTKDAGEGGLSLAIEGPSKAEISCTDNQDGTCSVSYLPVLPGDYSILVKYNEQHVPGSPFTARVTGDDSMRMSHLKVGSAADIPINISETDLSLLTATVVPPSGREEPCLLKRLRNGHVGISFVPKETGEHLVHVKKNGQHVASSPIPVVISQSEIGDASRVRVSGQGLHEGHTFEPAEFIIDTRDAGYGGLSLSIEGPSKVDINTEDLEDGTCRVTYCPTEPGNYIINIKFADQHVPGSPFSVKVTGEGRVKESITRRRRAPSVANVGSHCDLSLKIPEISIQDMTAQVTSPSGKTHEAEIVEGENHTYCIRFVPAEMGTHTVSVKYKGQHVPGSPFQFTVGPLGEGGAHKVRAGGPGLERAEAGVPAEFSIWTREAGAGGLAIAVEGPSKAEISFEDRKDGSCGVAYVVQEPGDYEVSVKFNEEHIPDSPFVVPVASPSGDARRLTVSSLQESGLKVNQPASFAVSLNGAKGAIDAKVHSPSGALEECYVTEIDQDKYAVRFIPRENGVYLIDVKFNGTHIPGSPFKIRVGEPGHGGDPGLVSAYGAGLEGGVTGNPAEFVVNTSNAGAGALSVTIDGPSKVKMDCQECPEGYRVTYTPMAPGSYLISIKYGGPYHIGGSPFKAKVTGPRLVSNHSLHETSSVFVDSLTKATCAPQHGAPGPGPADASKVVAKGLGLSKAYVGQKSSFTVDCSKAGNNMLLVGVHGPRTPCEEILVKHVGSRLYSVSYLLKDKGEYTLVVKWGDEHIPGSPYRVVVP

Experiment [1] addresses Influenza A virus nucleoprotein (NP) of A/Puerto Rico/8/34 (H1N1), made by the virus in infected cells (Influenza A virus A/Puerto Rico/8/34 (H1N1)) (UniProt P03466). In words: co-IP.
The target of experiment [2] is Filamin A (FLNA), endogenous in A549 cells (human (endogenous in A549)) (UniProt P21333). In words: co-IP.

Results are given in words; binding and its absence hold for the method and conditions named. In cells and extracts the contact can be indirect. Some entries that bind do so weakly or less than the wild type.

For “Filamin A (FLNA), endogenous in A549 cells (from UniProt P21333 1-2647)”, the binding result in experiment [1] was “binds”.
As to “Influenza A virus nucleoprotein (NP) of A/Puerto Rico/8/34 (H1N1), made by the virus in infected cells (from UniProt P03466 1-498)”, the binding entry in experiment [2] is given as “binds”.
